Data taken from patent US20040176568A1 (GENERAL HOSPITAL, published 2004).
Results are given in words; binding and its absence hold for the method and conditions named. Some results given as binding are weak or reduced against the parent protein; the word gives no strength.

T1: human PTH-1 receptor (human, UniProt Q03431 27-593)
T1 sequence (looked up): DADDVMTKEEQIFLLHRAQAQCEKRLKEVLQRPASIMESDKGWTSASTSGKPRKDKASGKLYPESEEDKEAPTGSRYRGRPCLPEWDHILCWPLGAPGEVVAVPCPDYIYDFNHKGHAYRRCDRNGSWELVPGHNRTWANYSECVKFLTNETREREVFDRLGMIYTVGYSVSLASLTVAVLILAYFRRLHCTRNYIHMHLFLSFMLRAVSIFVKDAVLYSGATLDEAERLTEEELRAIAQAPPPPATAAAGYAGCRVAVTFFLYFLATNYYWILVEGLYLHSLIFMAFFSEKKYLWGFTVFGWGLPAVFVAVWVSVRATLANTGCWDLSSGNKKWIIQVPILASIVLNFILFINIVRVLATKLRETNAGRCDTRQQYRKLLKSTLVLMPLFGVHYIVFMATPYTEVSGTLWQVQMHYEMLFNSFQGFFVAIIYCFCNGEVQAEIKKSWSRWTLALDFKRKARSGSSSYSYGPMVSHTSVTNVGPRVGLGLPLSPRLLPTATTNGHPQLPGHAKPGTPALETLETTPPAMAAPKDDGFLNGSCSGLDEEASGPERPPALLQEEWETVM


Each binder was assayed against T1, human PTH-1 receptor (assay: radioligand competition, HKRK B7 cells (human PTH-1 receptor)).
Description: Cell layers were washed three times before solubilization for determination of cell-associated radioactivity.

Binder	binding
AVSEIQLMHNLGKHLNSMERVEWLRKKLQDVHNY (chain 1: C-terminal amide) [[Ala^1]hPTH-(1-34)]	binds
SVSEIQLMHNLGKHLNSMERVEWLRKK (C-terminal amide) [hPTH-(1-27)]	no binding (tested: 1000 nM)
SVSEIQLMHNLGKHLNSMERVEWLRK (C-terminal amide) [hPTH-(1-26)]	no binding (tested: 1000 nM)
SVSEIQLMHNLGKHLNSMERVEWLR (C-terminal amide) [hPTH-(1-25)]	no binding (tested: 1000 nM)
SVSEIQLMHNLGKHLNSMERVEWL (C-terminal amide) [hPTH-(1-24)]	no binding (tested: 1000 nM)
